Assay results taken from PubChem BioAssay AID328 (DTP/NCI, 2004).
The list does not hold the whole screen: it gathers tests that were run many times, whatever their T/C, doses with no T/C, and many T/C values between a quarter and a half above the control. Other doses and runs of a compound stand elsewhere. T/C: endpoint of the treated group in % of that of the vehicle group. Some entries give survivors of the animals treated and no T/C: the source holds a T/C of zero for them, seemingly a mark for toxic or unscored doses. Some survivor counts are full or nearly so, which does not show that the dose was tolerated: survival well below the control is almost never listed, so the zero probably covers shortened survival too. Counts of survivors are from the toxicity check (mostly the fifth day) where no day follows; animals may have died later. Schedules are NCI's codes, taken here to give the interval after Q, in days (D) or hours (H), and the number of doses after X. Some entries hold several experiments; the results are listed from low to high. Where survival is the endpoint, the PubChem record calls one and a half times the control and up active, and a quarter to a half above the control has no call in these data; cut-offs in other NCI protocols can differ. Some T/C values are followed by the survivors on the day toxicity was checked, most often the fifth; without a count, all were alive then. Counts like (3×) stand for listed records that agree.

System: BDF1 mice, P388 leukemia ip, median survival T/C
Experiment: NCI In Vivo Anticancer Drug Screen. Data for tumor model P388 Leukemia (intraperitoneal) in B6D2F1 (BDF1) mice
Conditions: T/C endpoint: median survival time, higher T/C = longer survival
Summary of the method: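 Compound-treated tumour-bearing mice were compared with vehicle-treated controls. Survival was recorded, and the value is the treated-group measurement divided by the control-group measurement (T/C).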

[1] = dose: 75.0 mg/kg/injection, schedule: Q01DX009 (ip), vehicle: saline
[2] = dose: 100.0 mg/kg/injection, schedule: Q04DX003 (ip), vehicle: saline
[3] = dose: 200.0 mg/kg/injection, schedule: Q04DX003 (ip), vehicle: saline
[4] = dose: 100.0 mg/kg/injection, schedule: Q01DX009 (ip), vehicle: Klucel (hydroxypropylcellulose) (HPC)
[5] = dose: 50.0 mg/kg/injection, schedule: Q01DX009 (ip), vehicle: Klucel (hydroxypropylcellulose) (HPC)
[6] = dose: 25.0 mg/kg/injection, schedule: Q01DX009 (ip), vehicle: saline
[7] = dose: 50.0 mg/kg/injection, schedule: Q04DX003 (ip), vehicle: saline

CN(Cc1cnc2nc(N)nc(N)c2n1)c1ccc(C(=O)N[C@@H](CCC(=O)O)C(=O)O)cc1
T/C (dose: 0.5 mg/kg/injection, schedule: Q01DX009 (ip), vehicle: sodium bicarbonate): 147 % of control | T/C (dose: 1.1 mg/kg/injection, schedule: Q01DX009 (ip), vehicle: sodium bicarbonate, evaluated on day 5): 138 and 212 % of control | T/C (dose: 1.1 mg/kg/injection, schedule: Q01DX009 (ip), vehicle: sodium bicarbonate, evaluated on day 60): 138 and 212 % of control | T/C (dose: 1.5 mg/kg/injection, schedule: Q01DX009 (ip), vehicle: sodium bicarbonate, evaluated on day 31): 154 % of control | T/C (dose: 1.5 mg/kg/injection, schedule: Q01DX009 (ip), vehicle: sodium bicarbonate, evaluated on day 60): 198, 208, 217, 250 % of control | T/C (dose: 1.6 mg/kg/injection, schedule: Q01DX009 (ip), vehicle: sodium bicarbonate, evaluated on day 5): 186 and 215 % of control | T/C (dose: 1.6 mg/kg/injection, schedule: Q01DX009 (ip), vehicle: sodium bicarbonate, evaluated on day 60): 186 and 215 % of control | T/C (dose: 2.0 mg/kg/injection, schedule: Q01DX009 (ip), vehicle: sodium bicarbonate, evaluated on day 32): 132 % of control | T/C (dose: 2.0 mg/kg/injection, schedule: Q01DX009 (ip), vehicle: sodium bicarbonate, evaluated on day 46): 97 % of control | T/C (dose: 2.0 mg/kg/injection, schedule: Q01DX009 (ip), vehicle: sodium bicarbonate, evaluated on day 60): 222, 241, 244 % of control | T/C (dose: 2.4 mg/kg/injection, schedule: Q01DX009 (ip), vehicle: sodium bicarbonate, evaluated on day 5): 175 and 296 % of control | T/C (dose: 2.4 mg/kg/injection, schedule: Q01DX009 (ip), vehicle: sodium bicarbonate, evaluated on day 60): 175 and 296 % of control | survivor count (dose: 4.0 mg/kg/injection, schedule: Q01DX009 (ip), vehicle: sodium bicarbonate): 6 of 8 and 8 of 8 | T/C (dose: 6.6 mg/kg/injection, schedule: Q04DX003 (ip), vehicle: sodium bicarbonate, evaluated on day 5): 121, 124, 229, 250 % of control | T/C (dose: 6.6 mg/kg/injection, schedule: Q04DX003 (ip), vehicle: sodium bicarbonate, evaluated on day 60): 121, 124, 229, 231, 250 % of control | T/C (dose: 10.0 mg/kg/injection, schedule: Q04DX003 (ip), vehicle: sodium bicarbonate, evaluated on day 5): 140, 164, 201, 221, 242 % of control | T/C (dose: 10.0 mg/kg/injection, schedule: Q04DX003 (ip), vehicle: sodium bicarbonate, evaluated on day 60): 140, 164, 201, 242, 245 % of control | T/C (dose: 15.0 mg/kg/injection, schedule: Q04DX003 (ip), vehicle: sodium bicarbonate, evaluated on day 5): 137, 141, 224, 247, 250 % of control | T/C (dose: 15.0 mg/kg/injection, schedule: Q04DX003 (ip), vehicle: sodium bicarbonate, evaluated on day 60): 137, 141, 222 [9 of 10 alive], 225, 250 % of control | T/C (dose: 375.0 micrograms/kg/injection, schedule: Q01DX010 (ip), vehicle: other): 158, 170, 212, 213, 245 % of control | T/C (dose: 750.0 micrograms/kg/injection, schedule: Q01DX010 (ip), vehicle: other): 185, 229, 245 (2×), 272 % of control | T/C (dose: 1500.0 micrograms/kg/injection, schedule: Q01DX010 (ip), vehicle: other): 213 [5 of 6 alive], 245, 250, 265, 285 % of control

O=C(O)/C=C\c1c[nH]c2nccnc12
survivor count [1]: 3 of 6 | survivor count [2]: 4 of 6 | survivor count [3]: 0 of 6

O=C1CCCN1
survivor count [3]: 6 of 6

NC(=S)c1nn(C2OC(CO)C(O)C2O)c2ncnc(N)c12 (centres undefined)
T/C (dose: 1.5 mg/kg/injection, schedule: Q01DX009 (ip), vehicle: saline): 125 % of control | T/C (dose: 3.0 mg/kg/injection, schedule: Q01DX009 (ip), vehicle: saline): 131 % of control | survivor count [2]: 0 of 6 | survivor count [3]: 0 of 6 | survivor count (dose: 400.0 mg/kg/injection, schedule: Q04DX003 (ip), vehicle: saline): 0 of 6

CN(C)C1CCCCC1
survivor count (dose: 12.5 mg/kg/injection, schedule: Q04DX003 (ip), vehicle: Klucel (hydroxypropylcellulose) (HPC)): 6 of 6

O=C1OC(c2ccc([N+](=O)[O-])cc2)Sc2ccccc21 (centres undefined)
T/C [4]: 127 % of control

COc1cc(C=Nc2ccc(C(=O)O)c(O)c2)ccc1N(CCCl)CCCl
survivor count (dose: 18.0 mg/kg/injection, schedule: Q01DX009 (ip), vehicle: Klucel (hydroxypropylcellulose) (HPC)): 6 of 6 | T/C (dose: 25.0 mg/kg/injection, schedule: Q01DX009 (ip), vehicle: Klucel (hydroxypropylcellulose) (HPC)): 140 % of control | survivor count [5]: 5 of 6 | survivor count (dose: 75.0 mg/kg/injection, schedule: Q04DX003 (ip), vehicle: Klucel (hydroxypropylcellulose) (HPC)): 3 of 6 | survivor count (dose: 115.0 mg/kg/injection, schedule: Q04DX003 (ip), vehicle: Klucel (hydroxypropylcellulose) (HPC)): 1 of 6 | survivor count (dose: 170.0 mg/kg/injection, schedule: Q04DX003 (ip), vehicle: Klucel (hydroxypropylcellulose) (HPC)): 0 of 6

O=C(O)CCI
survivor count (dose: 200.0 mg/kg/injection, schedule: Q04DX003 (ip), vehicle: saline with Tween-80): 6 of 6 | survivor count (dose: 400.0 mg/kg/injection, schedule: Q01DX001 (ip), vehicle: saline): 2 of 6 | survivor count (dose: 400.0 mg/kg/injection, schedule: Q04DX003 (ip), vehicle: saline with Tween-80): 5 of 6

c1ccc(COC2CN3CCC2CC3)cc1 (centres undefined)
survivor count (dose: 100.0 mg/kg/injection, schedule: Q04DX003 (ip), vehicle: saline with Tween-80): 3 of 6

CN(C)CCCN1c2ccccc2Sc2ccc(C(F)(F)F)cc21
T/C (dose: 12.37 mg/kg/injection, schedule: Q01DX009 (ip), vehicle: saline): 136 % of control | T/C (dose: 12.5 mg/kg/injection, schedule: Q01DX009 (ip), vehicle: saline): 130 and 145 % of control | T/C (dose: 16.5 mg/kg/injection, schedule: Q04DX003 (ip), vehicle: saline): 127 % of control | T/C (dose: 18.75 mg/kg/injection, schedule: Q01DX009 (ip), vehicle: saline): 127 and 145 % of control | T/C [6]: 145 % of control | survivor count [6]: 6 of 7 | T/C (dose: 25.0 mg/kg/injection, schedule: Q04DX003 (ip), vehicle: saline): 129, 130, 144 % of control | T/C (dose: 28.12 mg/kg/injection, schedule: Q01DX009 (ip), vehicle: saline): 136 % of control [5 of 6 alive] | survivor count (dose: 37.5 mg/kg/injection, schedule: Q01DX009 (ip), vehicle: saline): 4 of 6 | survivor count (dose: 50.0 mg/kg/injection, schedule: Q01DX009 (ip), vehicle: saline): 2 of 7 | T/C (dose: 50.0 mg/kg/injection, schedule: Q04DX003 (ip), vehicle: saline with Tween-80): 143 % of control | T/C [7]: 127 and 140 % of control | survivor count [7]: 3 of 6 | survivor count [2]: 0 of 6 and 2 of 6 | survivor count [3]: 0 of 6

Cc1cccc(NC=O)c1
T/C (dose: 75.0 mg/kg/injection, schedule: Q01DX009 (ip), vehicle: saline with Tween-80): 136 % of control | T/C [1]: 126 % of control | T/C (dose: 150.0 mg/kg/injection, schedule: Q01DX009 (ip), vehicle: saline with Tween-80): 127 % of control | T/C (dose: 150.0 mg/kg/injection, schedule: Q01DX009 (ip), vehicle: saline): 126 % of control | T/C (dose: 300.0 mg/kg/injection, schedule: Q01DX009 (ip), vehicle: saline): 126 % of control

O=C1OP2(c3ccccc3)(OC(=O)c3ccccc32)c2ccccc21
T/C (dose: 25.0 mg/kg/injection, schedule: Q01DX009 (ip), vehicle: saline with Tween-80): 140 % of control

CCCc1nc2c(OC)ccc(OC)c2nc1C
survivor count (dose: 225.0 mg/kg/injection, schedule: Q01DX009 (ip), vehicle: Klucel (hydroxypropylcellulose) (HPC)): 6 of 6 | survivor count (dose: 335.0 mg/kg/injection, schedule: Q01DX009 (ip), vehicle: Klucel (hydroxypropylcellulose) (HPC)): 2 of 6

CC(=O)Nc1ccc(OCCOC(=O)Nc2ccc(C)cc2[N+](=O)[O-])cc1
survivor count [5]: 6 of 6

Fc1ccc(CSc2ncnc3c2ncn3C2CCCCO2)cc1 (centres undefined)
survivor count [4]: 6 of 6 | survivor count (dose: 400.0 mg/kg/injection, schedule: Q01DX009 (ip), vehicle: Klucel (hydroxypropylcellulose) (HPC)): 5 of 6
